± gives the standard deviation of the averaged measurements. Only a part is listed here, and it is no random draw. Most entries show no effect beyond the scatter of the controls.
Compound: Nc1ncnc2c1ncn2[C@@H]1O[C@H](COP(=O)(O)OP(=O)(O)NP(=O)(O)O)[C@@H](O)[C@H]1O [adenylyl imidodiphosphate]
Assay: NP40-soluble protein abundance relative to vehicle (solubility fold change) (ratio); higher = more soluble protein in presence of AMP-PNP
In short: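 Values are fold changes against the detergent-processed vehicle, based on vsn-normalised intensities. Jurkat crude lysate was treated at eight concentrations from 0.1 to 10 mM (10 min at room temperature, then 3 min at 37 °C), solubilised with 0.8% NP40 and benzonase, ultracentrifuged and analysed by TMT-labelled LC-MS/MS over three independent experiments.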

By UniProt entry, the sequences of proteins in these tests, tags left out. Where a name states a change or a piece, a line headed by the entry shows the natural chain unless it says otherwise.
UniProt P07195, whole entry, looked up: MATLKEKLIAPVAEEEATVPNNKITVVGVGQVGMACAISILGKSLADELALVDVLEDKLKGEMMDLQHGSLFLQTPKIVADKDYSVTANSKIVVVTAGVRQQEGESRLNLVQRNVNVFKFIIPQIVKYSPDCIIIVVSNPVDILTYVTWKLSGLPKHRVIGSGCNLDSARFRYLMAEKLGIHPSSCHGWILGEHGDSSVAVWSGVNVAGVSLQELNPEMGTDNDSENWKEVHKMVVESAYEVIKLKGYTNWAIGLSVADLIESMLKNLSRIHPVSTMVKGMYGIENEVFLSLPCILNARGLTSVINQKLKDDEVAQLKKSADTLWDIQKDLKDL
UniProt P09488: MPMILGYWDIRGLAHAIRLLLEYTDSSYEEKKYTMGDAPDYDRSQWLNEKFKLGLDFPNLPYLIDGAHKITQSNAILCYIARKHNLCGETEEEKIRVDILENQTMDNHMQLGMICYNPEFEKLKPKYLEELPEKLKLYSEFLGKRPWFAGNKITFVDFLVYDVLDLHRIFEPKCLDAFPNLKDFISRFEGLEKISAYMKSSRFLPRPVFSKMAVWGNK
UniProt P08754, whole entry: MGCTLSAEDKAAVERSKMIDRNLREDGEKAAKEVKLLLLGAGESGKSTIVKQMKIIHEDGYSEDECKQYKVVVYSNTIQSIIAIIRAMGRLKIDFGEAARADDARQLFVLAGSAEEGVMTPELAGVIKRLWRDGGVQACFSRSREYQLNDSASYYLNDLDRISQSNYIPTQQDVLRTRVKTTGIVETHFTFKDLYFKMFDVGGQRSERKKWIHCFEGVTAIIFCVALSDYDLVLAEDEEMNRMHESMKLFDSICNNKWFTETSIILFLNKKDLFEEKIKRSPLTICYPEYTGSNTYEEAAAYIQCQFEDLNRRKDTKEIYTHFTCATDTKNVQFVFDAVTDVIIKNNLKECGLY
UniProt P06753, whole entry: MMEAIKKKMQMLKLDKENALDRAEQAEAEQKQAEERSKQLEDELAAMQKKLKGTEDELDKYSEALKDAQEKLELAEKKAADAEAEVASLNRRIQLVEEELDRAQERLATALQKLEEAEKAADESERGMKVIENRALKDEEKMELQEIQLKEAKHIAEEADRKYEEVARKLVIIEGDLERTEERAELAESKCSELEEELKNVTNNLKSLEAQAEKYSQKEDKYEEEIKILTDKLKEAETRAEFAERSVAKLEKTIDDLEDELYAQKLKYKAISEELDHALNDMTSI
UniProt O96033: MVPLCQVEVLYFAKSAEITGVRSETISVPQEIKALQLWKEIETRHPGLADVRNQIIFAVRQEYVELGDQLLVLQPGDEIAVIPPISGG
UniProt P15291: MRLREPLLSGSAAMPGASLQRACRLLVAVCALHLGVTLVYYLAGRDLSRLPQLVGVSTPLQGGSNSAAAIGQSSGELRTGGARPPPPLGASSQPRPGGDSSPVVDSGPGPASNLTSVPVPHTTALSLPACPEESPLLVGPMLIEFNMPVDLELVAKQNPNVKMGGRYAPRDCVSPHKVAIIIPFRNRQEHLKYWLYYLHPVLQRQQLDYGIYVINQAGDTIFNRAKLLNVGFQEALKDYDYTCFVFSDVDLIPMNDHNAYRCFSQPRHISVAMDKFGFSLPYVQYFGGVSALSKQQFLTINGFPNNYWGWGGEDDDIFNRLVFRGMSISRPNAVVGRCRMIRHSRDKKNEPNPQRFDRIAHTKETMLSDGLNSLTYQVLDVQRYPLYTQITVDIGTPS
UniProt Q8IVS2: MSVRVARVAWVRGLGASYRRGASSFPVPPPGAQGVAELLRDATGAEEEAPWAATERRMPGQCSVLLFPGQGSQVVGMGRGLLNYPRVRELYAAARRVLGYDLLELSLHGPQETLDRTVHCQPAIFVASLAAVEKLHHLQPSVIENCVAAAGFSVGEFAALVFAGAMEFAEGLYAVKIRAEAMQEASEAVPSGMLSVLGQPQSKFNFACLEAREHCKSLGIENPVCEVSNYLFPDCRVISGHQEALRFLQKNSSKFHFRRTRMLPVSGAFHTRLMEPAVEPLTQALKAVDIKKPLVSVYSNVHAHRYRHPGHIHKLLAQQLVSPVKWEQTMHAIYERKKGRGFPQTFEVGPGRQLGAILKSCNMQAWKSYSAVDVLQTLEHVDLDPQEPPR
UniProt P02786, whole entry, looked up: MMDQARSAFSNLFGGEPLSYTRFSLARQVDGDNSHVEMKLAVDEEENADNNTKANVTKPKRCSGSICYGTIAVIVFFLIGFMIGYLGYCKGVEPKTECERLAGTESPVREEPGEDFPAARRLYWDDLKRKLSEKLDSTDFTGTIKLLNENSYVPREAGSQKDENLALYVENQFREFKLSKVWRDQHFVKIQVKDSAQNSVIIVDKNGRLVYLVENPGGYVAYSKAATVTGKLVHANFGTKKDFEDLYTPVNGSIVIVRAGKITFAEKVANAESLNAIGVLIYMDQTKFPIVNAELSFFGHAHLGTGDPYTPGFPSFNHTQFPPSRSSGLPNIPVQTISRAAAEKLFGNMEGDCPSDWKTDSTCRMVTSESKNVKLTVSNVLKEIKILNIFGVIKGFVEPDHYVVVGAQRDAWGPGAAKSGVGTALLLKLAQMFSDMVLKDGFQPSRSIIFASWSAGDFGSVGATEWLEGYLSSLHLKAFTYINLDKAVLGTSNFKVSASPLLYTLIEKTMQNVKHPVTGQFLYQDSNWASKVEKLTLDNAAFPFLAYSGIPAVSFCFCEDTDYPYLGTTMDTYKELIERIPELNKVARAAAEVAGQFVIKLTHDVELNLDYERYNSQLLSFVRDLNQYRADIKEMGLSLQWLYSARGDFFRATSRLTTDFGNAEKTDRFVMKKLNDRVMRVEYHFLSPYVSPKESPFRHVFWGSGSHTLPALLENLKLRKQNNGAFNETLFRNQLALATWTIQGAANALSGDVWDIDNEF
UniProt P00390: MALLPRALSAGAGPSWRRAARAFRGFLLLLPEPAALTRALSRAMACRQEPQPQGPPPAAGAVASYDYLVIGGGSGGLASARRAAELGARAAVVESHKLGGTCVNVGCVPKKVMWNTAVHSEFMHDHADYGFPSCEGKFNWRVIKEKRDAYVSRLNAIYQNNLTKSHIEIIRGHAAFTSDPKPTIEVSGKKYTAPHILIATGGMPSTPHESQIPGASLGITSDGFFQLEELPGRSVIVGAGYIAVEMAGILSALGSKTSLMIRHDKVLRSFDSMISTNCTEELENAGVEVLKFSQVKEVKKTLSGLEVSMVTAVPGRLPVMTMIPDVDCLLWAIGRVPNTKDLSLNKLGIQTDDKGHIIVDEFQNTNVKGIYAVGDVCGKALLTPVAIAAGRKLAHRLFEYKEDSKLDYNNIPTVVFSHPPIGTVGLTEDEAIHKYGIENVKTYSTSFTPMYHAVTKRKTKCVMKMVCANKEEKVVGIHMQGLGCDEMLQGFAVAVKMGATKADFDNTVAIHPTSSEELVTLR
UniProt P07199: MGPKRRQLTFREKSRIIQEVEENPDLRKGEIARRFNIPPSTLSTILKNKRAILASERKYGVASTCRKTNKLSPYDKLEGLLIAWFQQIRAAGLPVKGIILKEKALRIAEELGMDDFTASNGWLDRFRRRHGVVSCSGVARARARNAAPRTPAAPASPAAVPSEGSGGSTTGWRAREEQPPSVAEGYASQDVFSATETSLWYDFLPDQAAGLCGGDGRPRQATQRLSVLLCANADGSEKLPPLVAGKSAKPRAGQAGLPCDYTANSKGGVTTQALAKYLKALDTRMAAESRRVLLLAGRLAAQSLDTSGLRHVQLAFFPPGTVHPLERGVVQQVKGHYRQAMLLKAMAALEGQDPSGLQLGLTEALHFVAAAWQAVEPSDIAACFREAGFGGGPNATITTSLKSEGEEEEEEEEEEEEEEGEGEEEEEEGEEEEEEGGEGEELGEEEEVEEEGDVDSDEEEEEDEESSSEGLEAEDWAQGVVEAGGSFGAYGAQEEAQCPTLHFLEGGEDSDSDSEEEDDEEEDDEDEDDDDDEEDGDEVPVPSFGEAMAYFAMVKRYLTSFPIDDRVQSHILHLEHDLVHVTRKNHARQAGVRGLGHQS
UniProt P07237: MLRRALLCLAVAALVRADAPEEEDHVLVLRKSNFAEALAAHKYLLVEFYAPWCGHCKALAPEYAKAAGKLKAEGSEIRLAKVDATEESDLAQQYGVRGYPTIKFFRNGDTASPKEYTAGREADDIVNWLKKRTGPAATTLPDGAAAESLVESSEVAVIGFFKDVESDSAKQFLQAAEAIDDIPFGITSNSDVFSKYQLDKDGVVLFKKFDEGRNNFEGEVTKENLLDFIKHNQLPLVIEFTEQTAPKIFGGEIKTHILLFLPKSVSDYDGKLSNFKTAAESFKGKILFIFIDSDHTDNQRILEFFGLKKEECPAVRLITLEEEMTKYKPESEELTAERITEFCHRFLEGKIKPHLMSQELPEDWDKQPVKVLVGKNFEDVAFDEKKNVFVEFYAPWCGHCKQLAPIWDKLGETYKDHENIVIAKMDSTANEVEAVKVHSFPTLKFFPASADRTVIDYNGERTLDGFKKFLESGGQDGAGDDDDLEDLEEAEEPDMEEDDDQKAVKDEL
UniProt P09972: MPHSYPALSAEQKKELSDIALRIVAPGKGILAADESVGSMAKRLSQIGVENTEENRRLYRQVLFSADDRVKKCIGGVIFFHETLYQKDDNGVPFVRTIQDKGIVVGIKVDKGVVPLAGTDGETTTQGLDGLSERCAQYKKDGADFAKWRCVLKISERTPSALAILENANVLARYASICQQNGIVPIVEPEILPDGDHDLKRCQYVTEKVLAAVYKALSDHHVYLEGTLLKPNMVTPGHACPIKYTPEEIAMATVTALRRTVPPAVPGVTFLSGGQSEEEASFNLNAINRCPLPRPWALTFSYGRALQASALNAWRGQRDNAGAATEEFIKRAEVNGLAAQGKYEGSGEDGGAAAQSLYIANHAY
UniProt P15927: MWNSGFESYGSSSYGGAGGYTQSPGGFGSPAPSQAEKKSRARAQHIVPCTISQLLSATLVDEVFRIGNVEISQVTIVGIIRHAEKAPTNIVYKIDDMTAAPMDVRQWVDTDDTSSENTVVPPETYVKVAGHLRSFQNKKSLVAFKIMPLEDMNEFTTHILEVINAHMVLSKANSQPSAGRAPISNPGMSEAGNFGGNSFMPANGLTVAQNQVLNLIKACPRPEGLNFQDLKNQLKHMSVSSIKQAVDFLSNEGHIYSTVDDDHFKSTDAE
UniProt P11182, whole entry: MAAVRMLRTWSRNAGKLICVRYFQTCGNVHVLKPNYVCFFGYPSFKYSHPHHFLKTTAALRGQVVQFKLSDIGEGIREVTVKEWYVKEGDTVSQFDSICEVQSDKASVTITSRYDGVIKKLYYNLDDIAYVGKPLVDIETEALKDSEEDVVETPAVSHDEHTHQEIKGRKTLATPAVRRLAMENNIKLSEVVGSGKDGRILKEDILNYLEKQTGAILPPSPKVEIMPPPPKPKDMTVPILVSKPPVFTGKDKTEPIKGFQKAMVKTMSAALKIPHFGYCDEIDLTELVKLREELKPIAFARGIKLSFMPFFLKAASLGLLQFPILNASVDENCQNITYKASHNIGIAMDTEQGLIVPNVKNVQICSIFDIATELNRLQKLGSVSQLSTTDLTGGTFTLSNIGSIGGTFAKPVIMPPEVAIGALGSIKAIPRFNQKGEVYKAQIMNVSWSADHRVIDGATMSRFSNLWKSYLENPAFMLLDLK
UniProt P07738: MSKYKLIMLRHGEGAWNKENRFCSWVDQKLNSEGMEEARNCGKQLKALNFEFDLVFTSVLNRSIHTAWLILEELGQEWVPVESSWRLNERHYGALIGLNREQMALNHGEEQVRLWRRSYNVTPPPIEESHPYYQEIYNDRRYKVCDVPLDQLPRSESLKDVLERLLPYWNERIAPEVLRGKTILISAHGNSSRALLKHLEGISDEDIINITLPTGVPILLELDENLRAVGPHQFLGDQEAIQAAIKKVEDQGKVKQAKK
UniProt P14868: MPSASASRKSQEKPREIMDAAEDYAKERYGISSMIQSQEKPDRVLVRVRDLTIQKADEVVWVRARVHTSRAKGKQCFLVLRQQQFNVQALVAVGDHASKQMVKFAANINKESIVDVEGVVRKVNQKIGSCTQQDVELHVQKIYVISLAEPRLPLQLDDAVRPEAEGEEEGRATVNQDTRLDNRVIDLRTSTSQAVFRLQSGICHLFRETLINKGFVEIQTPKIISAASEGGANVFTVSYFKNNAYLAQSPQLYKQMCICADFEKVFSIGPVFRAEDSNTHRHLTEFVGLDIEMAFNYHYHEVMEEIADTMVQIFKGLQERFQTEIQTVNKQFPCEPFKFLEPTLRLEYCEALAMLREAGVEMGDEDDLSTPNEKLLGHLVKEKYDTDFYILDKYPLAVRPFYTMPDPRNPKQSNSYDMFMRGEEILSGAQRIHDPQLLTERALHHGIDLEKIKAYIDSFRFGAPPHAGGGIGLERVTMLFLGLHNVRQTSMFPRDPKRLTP
UniProt O95816: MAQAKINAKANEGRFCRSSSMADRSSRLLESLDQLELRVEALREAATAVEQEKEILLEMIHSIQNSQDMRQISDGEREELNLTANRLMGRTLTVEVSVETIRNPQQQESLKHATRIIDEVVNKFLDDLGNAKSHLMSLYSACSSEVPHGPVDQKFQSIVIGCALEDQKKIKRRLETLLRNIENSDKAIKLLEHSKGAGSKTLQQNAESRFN

Target	NP40-soluble protein abundance (concentration: 0.1mM)	NP40-soluble protein abundance (concentration: 0.5mM)
SNAP29 (UniProt O95721)	0.985 ± 0.083	0.989 ± 0.074
CYBA (UniProt P13498)	1.01 ± 0.04	1.06 ± 0.094
UniProt P08559 and related entries	1.07 ± 0.12	1.04 ± 0.1
BAG3 (UniProt O95817)	0.966 ± 0.062	0.964 ± 0.046
CTSD (UniProt P07339)	0.998 ± 0.022	1.03 ± 0.043
LDHB (UniProt P07195)	0.985 ± 0.052	0.975 ± 0.06
UniProt P12955 and related entries	0.997 ± 0.036	1.01 ± 0.038
UniProt P06756 and related entries	0.975 ± 0.019	0.985 ± 0.015
UniProt P09488 and related entries	1.02 ± 0.084	1.02 ± 0.04
ADH5 (UniProt P11766)	1 ± 0.032	0.998 ± 0.042
HNRNPL (UniProt P14866)	1.04 ± 0.06	1.05 ± 0.082
UCHL3 (UniProt P15374)	1.01 ± 0.037	1.038 ± 0.0099
GTF2F2 (UniProt P13984)	0.984 ± 0.013	1.01 ± 0.025
UniProt O95749 and related entries	1.02 ± 0.053	1.01 ± 0.065
GNAI3 (UniProt P08754)	1.01 ± 0.058	0.992 ± 0.11
UniProt O95905 and related entries	1.016 ± 0.0047	1 ± 0.036
UMPS (UniProt P11172)	1.02 ± 0.016	1.01 ± 0.025
DDAH2 (UniProt O95865)	1.02 ± 0.017	1.02 ± 0.025
UniProt P15882 and related entries	0.987 ± 0.06	0.968 ± 0.061
ITGA5 (UniProt P08648)	0.997 ± 0.03	0.999 ± 0.024
UniProt P06126	0.998 ± 0.018	0.989 ± 0.021
UniProt P10398 and related entries	1.04 ± 0.023	1.02 ± 0.041
UniProt P11310 and related entries	0.991 ± 0.043	1.04 ± 0.076
FBXO45 (UniProt P0C2W1)	1.01 ± 0.017	0.998 ± 0.055

Target	NP40-soluble protein abundance (concentration: 0.1mM)	NP40-soluble protein abundance (concentration: 0.5mM)
PLCG2 (UniProt P16885)	0.998 ± 0.031	0.982 ± 0.068
UniProt P16591 and related entries	0.998 ± 0.02	0.948 ± 0.081
HSP90AB1 (UniProt P08238)	1.03 ± 0.037	1.04 ± 0.032
P0CAP2 and related entries (UniProt Q6EEV4+P0CAP2)	0.9688 ± 0.0027	0.972 ± 0.048
UniProt P13807 and related entries	1.02 ± 0.034	0.968 ± 0.065
SP1 (UniProt P08047)	0.965 ± 0.022	1.02 ± 0.038
UniProt P06753-2|P06753-3|P06753-5|P06753-6|J3KN67	1 ± 0.094	1.13 ± 0.2
ACAA1 (UniProt P09110)	0.9797 ± 0.0066	0.9896 ± 0.0088
SLC25A5 (UniProt P05141)	1.03 ± 0.048	1 ± 0.034
UniProt P05771 and related entries	1.02 ± 0.029	1.046 ± 0.0082
PRKAR1A (UniProt P10644)	1.04 ± 0.032	1.01 ± 0.029
UniProt P14151 and related entries	1 ± 0.035	1.05 ± 0.07
O96007 and related entries (UniProt O96033+O96007)	0.997 ± 0.037	1.011 ± 0.0042
SLC25A4 (UniProt P12235)	1.01 ± 0.044	0.996 ± 0.081
GLA (UniProt P06280)	0.991 ± 0.047	1.01 ± 0.048
UniProt P0C869-6|P0C869-7|P0C869-8	1.018 ± 0.0014	1 ± 0.051
SLC2A3 (UniProt P11169)	1.01 ± 0.021	0.984 ± 0.014
UniProt P13861 and related entries	0.9836 ± 0.007	0.9849 ± 0.0095
TOP1 (UniProt P11387)	0.986 ± 0.014	1.01 ± 0.033
UniProt P15291 and related entries	0.988 ± 0.031	0.991 ± 0.022
PFN1 (UniProt P07737)	0.993 ± 0.1	0.975 ± 0.024
TTC4 (UniProt O95801)	1 ± 0.018	0.997 ± 0.042
HSP90B1 (UniProt P14625)	0.982 ± 0.021	1.03 ± 0.032
UniProt P13929 and related entries	0.985 ± 0.042	1.01 ± 0.044

Single records, from the list above.
GTF2F2 (UniProt P13984) is entered as NP40-soluble protein abundance (concentration: 0.1mM): 0.984 ± 0.013; NP40-soluble protein abundance (concentration: 0.5mM): 1.01 ± 0.025
UniProt P10398 and related entries is entered as NP40-soluble protein abundance (concentration: 0.1mM): 1.04 ± 0.023; NP40-soluble protein abundance (concentration: 0.5mM): 1.02 ± 0.041

(list continues)

Target	NP40-soluble protein abundance (concentration: 0.1mM)	NP40-soluble protein abundance (concentration: 0.5mM)
UniProt O95822-2|O95822	1.07 ± 0.11	0.982 ± 0.08
P00403 and related entries (UniProt Q8IVS2)	1.04 ± 0.049	0.975 ± 0.16
SRP19 (UniProt P09132)	0.965 ± 0.061	1.03 ± 0.14
P0CG12 and related entries (UniProt P0CG13)	0.974 ± 0.036	0.979 ± 0.059
CAPN1 (UniProt P07384)	1.01 ± 0.049	0.99 ± 0.061
RPS2 (UniProt P15880)	1.02 ± 0.035	0.992 ± 0.031
UniProt P14316 and related entries	0.991 ± 0.036	1 ± 0.049
UniProt P08243 and related entries	1.04 ± 0.059	0.996 ± 0.1
CYC1 (UniProt P08574)	1.01 ± 0.034	1.04 ± 0.056
AKR1B1 (UniProt P15121)	0.997 ± 0.022	1 ± 0.055
UniProt O95834 and related entries	1.002 ± 0.01	0.964 ± 0.047
UniProt P07311 and related entries	1.01 ± 0.064	1.07 ± 0.11
SYF2 (UniProt O95926)	0.9807 ± 0.002	0.9987 ± 0.0059
LAMP1 (UniProt P11279)	0.984 ± 0.084	1.06 ± 0.094
TFRC (UniProt P02786)	1.01 ± 0.038	1.04 ± 0.057
CSTB (UniProt P04080)	0.939 ± 0.043	0.974 ± 0.045
UniProt P05165 and related entries	1.03 ± 0.042	0.998 ± 0.032
SLC2A1 (UniProt P11166)	1.02 ± 0.069	1.01 ± 0.058
UniProt P09564	1.02 ± 0.033	1.06 ± 0.06
COX5B (UniProt P10606)	0.979 ± 0.036	0.977 ± 0.048
UniProt P11171 and related entries	0.984 ± 0.011	0.992 ± 0.011
UniProt P00390 and related entries	1 ± 0.024	0.994 ± 0.044
UniProt O95985 and related entries	1.01 ± 0.024	1.003 ± 0.0094
HIST1H1D (UniProt P16402)	1.03 ± 0.06	1.04 ± 0.061

Target	NP40-soluble protein abundance (concentration: 0.1mM)	NP40-soluble protein abundance (concentration: 0.5mM)
SRF (UniProt P11831)	0.973 ± 0.013	1.02 ± 0.021
PLEK (UniProt P08567)	1.03 ± 0.07	0.9869 ± 0.0088
UniProt P06213-2|P06213	0.993 ± 0.024	0.997 ± 0.038
ADA (UniProt P00813)	0.992 ± 0.012	0.9974 ± 0.009
UniProt P04035 and related entries	0.982 ± 0.0089	0.976 ± 0.026
UniProt P04921 and related entries	1.25 ± 0.37	1.11 ± 0.1
UROS (UniProt P10746)	1 ± 0.026	0.988 ± 0.044
ZBED1 (UniProt O96006)	0.98 ± 0.039	0.999 ± 0.039
UniProt P10155	1.02 ± 0.047	0.965 ± 0.071
HMGN2 (UniProt P05204)	0.946 ± 0.026	1.06 ± 0.22
CENPB (UniProt P07199)	0.972 ± 0.018	1 ± 0.022
UniProt O95831 and related entries	1.011 ± 0.0097	0.98 ± 0.03
P4HB (UniProt P07237)	1 ± 0.014	0.996 ± 0.048
CAT (UniProt P04040)	1.02 ± 0.015	0.994 ± 0.013
UniProt P14324 and related entries	1.02 ± 0.017	1.02 ± 0.044
SSB (UniProt P05455)	0.995 ± 0.027	1.02 ± 0.052
HMGB1 (UniProt P09429)	0.98 ± 0.018	1.11 ± 0.091
UniProt O96020 and related entries	1.04 ± 0.028	0.9909 ± 0.002
UniProt O96028 and related entries	1.03 ± 0.025	1.03 ± 0.042
UniProt P04053 and related entries	1.03 ± 0.035	1.01 ± 0.057
ALDOC (UniProt P09972)	1.01 ± 0.061	1.04 ± 0.036
UniProt O95864 and related entries	1.001 ± 0.008	1.02 ± 0.056
UniProt P12814 and related entries	0.9839 ± 0.0065	1.03 ± 0.034
HIST1H1B (UniProt P16401)	1.02 ± 0.048	1.08 ± 0.065

Look-ups from above:
GLA (UniProt P06280) | NP40-soluble protein abundance (concentration: 0.1mM): 0.991 ± 0.047
PLEK (UniProt P08567) | NP40-soluble protein abundance (concentration: 0.5mM): 0.9869 ± 0.0088
UMPS (UniProt P11172) | NP40-soluble protein abundance (concentration: 0.5mM): 1.01 ± 0.025

Following part

Target	NP40-soluble protein abundance (concentration: 0.1mM)	NP40-soluble protein abundance (concentration: 0.5mM)
IMPDH2 (UniProt P12268)	1.04 ± 0.046	0.993 ± 0.059
QDPR (UniProt P09417)	0.968 ± 0.028	0.982 ± 0.017
UniProt P15927 and related entries	0.9954 ± 0.0062	1.014 ± 0.0085
UniProt P01116-2	1.01 ± 0.028	0.97 ± 0.018
DBT (UniProt P11182)	1.01 ± 0.13	1.01 ± 0.075
BPGM (UniProt P07738)	1.05 ± 0.12	0.983 ± 0.02
GALT (UniProt P07902)	0.986 ± 0.02	0.99 ± 0.058
POLR3D (UniProt P05423)	1 ± 0.05	0.9844 ± 0.0057
UniProt P10619 and related entries	1.02 ± 0.047	1.01 ± 0.018
DARS (UniProt P14868)	1.03 ± 0.018	0.997 ± 0.07
BAG2 (UniProt O95816)	1.13 ± 0.031	1.17 ± 0.044
UniProt P00491	1.05 ± 0.025	0.996 ± 0.07
HSPA5 (UniProt P11021)	0.982 ± 0.042	1.02 ± 0.077
ZBTB48 (UniProt P10074)	0.977 ± 0.027	0.987 ± 0.049
P0DN76 and related entries (UniProt Q01081+P0DN76)	1.1 ± 0.029	1.04 ± 0.063
TYMS (UniProt P04818)	1.01 ± 0.057	0.971 ± 0.11
UniProt P15813	0.995 ± 0.024	1 ± 0.013
UniProt P06576 and related entries	1.02 ± 0.026	1.02 ± 0.045
TOMM40 (UniProt O96008)	0.981 ± 0.03	1.03 ± 0.04
UniProt P16435 and related entries	1.01 ± 0.029	1 ± 0.03
NCK1 (UniProt P16333)	0.996 ± 0.033	0.975 ± 0.027
UniProt P09651-2|P09651	1.04 ± 0.073	1.07 ± 0.078
GNAI2 (UniProt P04899)	1.01 ± 0.066	1.01 ± 0.069
UniProt P01737	1.01 ± 0.064	0.999 ± 0.06

Reference: the supplement of paper PMC6411743
